# From PubChem BioAssay AID493014 (National Center for Advancing Translational Sciences (NCATS), 2011)
# Some of the results follow. Further columns of the screen follow, without active or inactive calls. Compounds called inactive in the main read-out are mostly missing here. The note in brackets gives the kind of curve behind each potency; many fits are weak.
# Assay: qHTS Assay to Find Inhibitors of Chronic Active B-Cell Receptor Signaling
# Conditions: ABC-DLBCL IkBa-CBG/CBR reporter, luminescence ratio (green luciferase fused to IkBa over red control in TMD8 lymphoma cells), 4 h
# In short: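 TMD8 human ABC-DLBCL cells with doxycycline-inducible IκBα–green luciferase fusion and unfused red luciferase, in 0.5% FBS medium; compounds up to 46 uM, 4 h at 37C. Green/red luminescence ratio, filter-overlap corrected, fitted to concentration-response curves.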
# [1] = measured here: CBR red luminescence, cell number
# [2] = measured here: IkBa-CBG green luminescence
Structure (SMILES),AC50 [1],AC50 [2]
N#Cc1ccc(C(=O)Nc2nnc(-c3ccco3)o2)cc1,"7.94 µM [falling, partial curve, poor fit]",
Fc1cccc(Cl)c1-c1nnc2ccc(N3CCOCC3)nn12,"3.26 µM [falling, partial curve, poor fit]",
CCOc1ccccc1NC(=O)CSc1nnnn1-c1ccc(C(=O)OC)cc1,"7.08 µM [rising, partial curve, poor fit]",
Cc1cccc(C(=O)NC(C(=O)Nc2nc(-c3ccccn3)cs2)C(C)C)c1 (stereo unspecified),"15.8 µM [falling, partial curve, poor fit]",
CSCC[C@H](NC(=O)OC(C)(C)C)C(=O)N/N=C/c1cccc2cccnc12,"6.31 µM [falling, partial curve]",
COc1ccc(Nc2nccc(-c3ccc(C#N)cc3)n2)cc1,"12.6 µM [falling, single point]",
NC(=O)c1ccc(CN2CCc3ccccc3C2)cc1,"6.31 µM [rising, single point]",
Cc1c(C#N)c2ccccc2n1C,"5.01 µM [rising, partial curve, poor fit]",
O=C(Cc1ccccc1)N(Cc1cccnc1)c1nc2c(Cl)cccc2s1,"11.2 µM [falling, partial curve, poor fit]","12.6 µM [rising, single point]"
O=C(NN=C1CCCC1)c1ccccc1OCCOc1ccccc1,"7.94 µM [falling, partial curve]",
O=C(CN1CCN(c2ccccn2)CC1)Nc1cccc(F)c1,"11.2 µM [rising, partial curve]",
Cn1cc(/C=C(\NC(=O)c2ccccc2)C(=O)NCCN2CCOCC2)c2ccccc21,"11.2 µM [falling, single point]",
CCOC(=O)c1c(C)c(C(=O)NCC2CCCO2)c(C)n1CC (stereo unspecified),"0.58 µM [falling, full curve, poor fit]",
Cc1sc2ncnc(SCC(=O)Nc3ncccc3O)c2c1C,"16.4 µM [falling, partial curve, poor fit]",
Cc1ccc(C(=O)N=c2sccn2C)cc1S(=O)(=O)N1CCOCC1,"8.2 µM [falling, partial curve]",
Cc1ccc(CC(=O)CCc2ccccc2)cc1,"2.59 µM [rising, full curve, poor fit]",
CCOC(=O)[C@@H]1[C@H]2COc3ccccc3[C@H]2N2C(=O)N(c3cccc(F)c3)C(=O)[C@]12C,"7.08 µM [falling, partial curve]",
Cc1ccc(Sc2cnn(-c3ccccc3)c(=O)c2Cl)cc1,"11.2 µM [falling, partial curve, poor fit]",
CN1CCN(C(=S)c2ccc(-c3cc(Cl)ccc3Cl)o2)CC1,"3.98 µM [falling, partial curve, poor fit]",
CCOC(=O)CSC(=S)NC(=O)c1ccc(OC)cc1,"0.92 µM [rising, full curve, poor fit]",
Cc1ccccc1NC(=O)c1cnn(-c2ccccc2)c1C,"5.01 µM [falling, partial curve]",
Cc1ccc(NC(=O)Nc2cccc(C)n2)cc1,"0.794 µM [rising, partial curve, poor fit]",

Structure (SMILES),AC50 [1],AC50 [2]
O=S(=O)(Nc1nc2ccccc2nc1Cl)c1ccc(Cl)cc1,"1.84 µM [rising, partial curve, poor fit]",
Cc1ccc(NC(=O)c2ccccc2-c2ccccc2C(=O)O)cc1C,"35.5 µM [rising, single point]",
C/C(=N\NC(=O)C1=NNC(=O)C1C)c1cccs1 (stereo unspecified),"12.6 µM [falling, partial curve]",
CNC(C)C#Cc1ccc2oc3cccc(OC)c3c(=O)c2c1 (stereo unspecified),"0.891 µM [rising, partial curve]","1.26 µM [rising, partial curve, poor fit]"
CC1(C)CC(=O)C(C(=O)CCCCC(=O)C2C(=O)CC(C)(C)CC2=O)C(=O)C1,"6.51 µM [rising, single point]",
Cc1ccccc1N1CCN(C2CCCN(C(=O)CCc3c(C)noc3C)C2)CC1 (stereo unspecified),"35.5 µM [falling, single point]",
COc1ccccc1C(=O)Nc1ccc(C(=O)O)cc1,"1.84 µM [falling, full curve]",
O=C(N/N=C/c1cc2cc3c(cc2nc1Cl)OCCO3)c1ccccc1O,"8.2 µM [falling, partial curve]",
Cc1ccc(SCCSc2nc(N)cc(=O)[nH]2)cc1,"11.2 µM [rising, partial curve]",
COc1ccc(CCNC(=O)CCNS(=O)(=O)c2ccc3c(c2)CCN3C(C)=O)cc1OC,"3.66 µM [rising, full curve, poor fit]",
CC(C)=CCN1CCN(Cc2cnc(N3CCOCC3)s2)CC1CCO (stereo unspecified),"0.316 µM [rising, full curve, poor fit]",
CC(=O)/C(N=Nc1ccc2c(c1)OCCO2)=C(\C)O,"6.31 µM [falling, partial curve, poor fit]",
C=CCCC(=O)NC1CC(C)(C)Cc2c1cnn2-c1cccc(F)c1 (stereo unspecified),"35.5 µM [rising, single point]",
Cn1c(SCC(=O)N(C2CCCCC2)C2CCCCC2)nnc1-c1cccs1,"0.0082 µM [falling, full curve, poor fit]",
CCn1c2ccc(F)cc2c2nc3ccccc3nc21,"35.5 µM [falling, partial curve, poor fit]",
Cc1ccc(NC(=O)c2oc3ccc(S(=O)(=O)N4CCCCCC4)cc3c2C)c(C)c1,"35.5 µM [rising, single point]",
COc1ccc(N2CCN(C(=O)c3cc4c(C)nc5ccccc5c4o3)CC2)cc1,"12.6 µM [falling, partial curve]",
CC(C)(C)C(=O)N(Cc1ccccc1)c1ccccn1,"15.8 µM [rising, partial curve, poor fit]",
COc1ccccc1NC(=O)C1CCCN(S(=O)(=O)c2cnc[nH]2)C1 (stereo unspecified),"6.51 µM [falling, partial curve, poor fit]",
Cc1ccc(C)c(SCC(=O)NC(=O)NC2CCCC2)c1,"0.116 µM [rising, full curve, poor fit]",
Cc1ccccc1NS(=O)(=O)c1ccc2[nH]cc(C(=O)NC3CCCCC3)c(=O)c2c1,"23.1 µM [falling, single point]",
CCOc1ccc2nc(NC(=O)c3cccnc3)sc2c1,"0.731 µM [rising, full curve, poor fit]",

# An excerpt from above in order of SMILES length, descending:
Structure (SMILES),AC50 [1],AC50 [2]
Cc1ccccc1N1CCN(C2CCCN(C(=O)CCc3c(C)noc3C)C2)CC1 (stereo unspecified),"35.5 µM [falling, single point]",
Cc1ccc(NC(=O)c2ccccc2-c2ccccc2C(=O)O)cc1C,"35.5 µM [rising, single point]",
Cc1ccc(C)c(SCC(=O)NC(=O)NC2CCCC2)c1,"0.116 µM [rising, full curve, poor fit]",
CCOc1ccc2nc(NC(=O)c3cccnc3)sc2c1,"0.731 µM [rising, full curve, poor fit]",

# Following part.

Structure (SMILES),AC50 [1],AC50 [2]
CC(=O)Cc1cc(O)c2ccccc2c1OC(=O)c1ccccc1,,"8.91 µM [falling, partial curve, poor fit]"
Cc1ccnc(NC(=O)c2ccc([N+](=O)[O-])s2)c1,"12.6 µM [falling, single point]",
Cc1ccc(NC(=O)COS(=O)c2ccc(C)cc2)cc1 (stereo unspecified),"4.11 µM [rising, single point]",
CCN(CC)C(=O)[C@H]1C[C@H](CC(=O)NCc2ccc(OC)c(OC)c2)C(=O)N2CCc3c([nH]c4cc(CCC(=O)N(C)C)ccc34)[C@]12C,"29.1 µM [rising, single point]",
CCOC(=O)N1CCC(NC(=O)Cn2ncc3c4ccccc4n(C)c3c2=O)CC1,"23.1 µM [rising, single point]",
O=C(COC(=O)/C=C/c1cccs1)Nc1nc(-c2ccccc2)cs1,"13 µM [falling, partial curve, poor fit]",
Cc1c(NC(=O)C(C)N(c2ccccc2)S(C)(=O)=O)c(=O)n(-c2ccccc2)n1C (stereo unspecified),"0.447 µM [rising, partial curve, poor fit]",
COc1ccccc1CNC(=O)C1CC(c2cccc([N+](=O)[O-])c2)=NO1 (stereo unspecified),"2 µM [falling, partial curve, poor fit]",
O=C(COc1ccccc1[N+](=O)[O-])N/N=C/c1ccc[nH]1,"17.8 µM [rising, partial curve, poor fit]",
CC1(C)CC(=O)/C(=C(/O)Cc2ccccc2)C(=NCCc2ccccc2)C1,"6.51 µM [rising, single point]",
CCc1cc(C(=O)NNC(=O)c2csc(N3CCOCC3)n2)sc1C,"29.1 µM [falling, single point]",
CCC1Oc2ccccc2N(CC(=O)NCCCN2CCCCC2CC)C1=O (stereo unspecified),"23.1 µM [falling, partial curve, poor fit]",
Cc1ccc(-c2nc(-c3ccccn3)no2)cc1[N+](=O)[O-],"10 µM [falling, partial curve, poor fit]",
CCCc1nc2ccccc2n1CC(O)COc1ccc(NC(C)=O)cc1 (stereo unspecified),"10 µM [rising, partial curve]",
CC1Cc2cc(/C(O)=C3/C(=O)C(=O)N(CCCn4ccnc4)C3c3ccco3)ccc2O1 (stereo unspecified),"25.1 µM [rising, single point]",
O=C(CCCc1ccccc1)NCc1ccc(Cl)cc1,"2.82 µM [rising, partial curve, poor fit]",
COc1ccc(C(=O)OC(C)C(=O)NCC2CCCCC2)cc1S(=O)(=O)N1CCOCC1 (stereo unspecified),"16.4 µM [rising, partial curve, poor fit]",
O=C(NCc1cccnc1)c1cccc(Cl)c1,"29.1 µM [rising, single point]",
Oc1c(Cl)cc(Cl)cc1/C=N/c1nccs1,"2.06 µM [rising, partial curve, poor fit]",
Cc1sc(NC(=O)C2CCCCC2)c(C#N)c1-c1ccccc1,"2.51 µM [rising, full curve, poor fit]",
